Results are given in words; binding and its absence hold for the method and conditions named. Binding seen in cells or lysates may run through a third protein. Some results given as binding are weak or reduced against the parent protein; the word gives no strength.
B1: syndecan-1 (protein, UniProt P18827 23-310)
chain: QIVATNLPPEDQDGSGDDSDNFSGSGAGALQDITLSQQTPSTWKDTQLLTAIPTSPEPTGLEATAASTSTLPAGEGPKEGEAVVLPEVEPGLTAREQEATPRPRETTQLPTTHLASTTTATTAQEPATSHPHRDMQPGHHETSTPAGPSQADLHTPHTEDGGPSATERAAEDGASSQLPAAEGSGEQDFTFETSGENTAVVAVEPDRRNQSPVDQGATGASQGLLDRKEVLGGVIAGGLVGLIFAVCLVGFMLYRMKKKDEGSYSLEEPKQANGGAYQKPTKQEEFYA
modifications: heparan sulfate (HS) and chondroitin sulfate (CS) glycosaminoglycan side chains

By UniProt entry, the sequences of proteins in these tests, tags left out. Residues count along the entry.
UniProt P13500, residues 24-99: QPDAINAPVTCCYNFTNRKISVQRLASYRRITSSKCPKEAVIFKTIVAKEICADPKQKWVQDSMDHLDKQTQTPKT
UniProt P13611, residues 21-3396: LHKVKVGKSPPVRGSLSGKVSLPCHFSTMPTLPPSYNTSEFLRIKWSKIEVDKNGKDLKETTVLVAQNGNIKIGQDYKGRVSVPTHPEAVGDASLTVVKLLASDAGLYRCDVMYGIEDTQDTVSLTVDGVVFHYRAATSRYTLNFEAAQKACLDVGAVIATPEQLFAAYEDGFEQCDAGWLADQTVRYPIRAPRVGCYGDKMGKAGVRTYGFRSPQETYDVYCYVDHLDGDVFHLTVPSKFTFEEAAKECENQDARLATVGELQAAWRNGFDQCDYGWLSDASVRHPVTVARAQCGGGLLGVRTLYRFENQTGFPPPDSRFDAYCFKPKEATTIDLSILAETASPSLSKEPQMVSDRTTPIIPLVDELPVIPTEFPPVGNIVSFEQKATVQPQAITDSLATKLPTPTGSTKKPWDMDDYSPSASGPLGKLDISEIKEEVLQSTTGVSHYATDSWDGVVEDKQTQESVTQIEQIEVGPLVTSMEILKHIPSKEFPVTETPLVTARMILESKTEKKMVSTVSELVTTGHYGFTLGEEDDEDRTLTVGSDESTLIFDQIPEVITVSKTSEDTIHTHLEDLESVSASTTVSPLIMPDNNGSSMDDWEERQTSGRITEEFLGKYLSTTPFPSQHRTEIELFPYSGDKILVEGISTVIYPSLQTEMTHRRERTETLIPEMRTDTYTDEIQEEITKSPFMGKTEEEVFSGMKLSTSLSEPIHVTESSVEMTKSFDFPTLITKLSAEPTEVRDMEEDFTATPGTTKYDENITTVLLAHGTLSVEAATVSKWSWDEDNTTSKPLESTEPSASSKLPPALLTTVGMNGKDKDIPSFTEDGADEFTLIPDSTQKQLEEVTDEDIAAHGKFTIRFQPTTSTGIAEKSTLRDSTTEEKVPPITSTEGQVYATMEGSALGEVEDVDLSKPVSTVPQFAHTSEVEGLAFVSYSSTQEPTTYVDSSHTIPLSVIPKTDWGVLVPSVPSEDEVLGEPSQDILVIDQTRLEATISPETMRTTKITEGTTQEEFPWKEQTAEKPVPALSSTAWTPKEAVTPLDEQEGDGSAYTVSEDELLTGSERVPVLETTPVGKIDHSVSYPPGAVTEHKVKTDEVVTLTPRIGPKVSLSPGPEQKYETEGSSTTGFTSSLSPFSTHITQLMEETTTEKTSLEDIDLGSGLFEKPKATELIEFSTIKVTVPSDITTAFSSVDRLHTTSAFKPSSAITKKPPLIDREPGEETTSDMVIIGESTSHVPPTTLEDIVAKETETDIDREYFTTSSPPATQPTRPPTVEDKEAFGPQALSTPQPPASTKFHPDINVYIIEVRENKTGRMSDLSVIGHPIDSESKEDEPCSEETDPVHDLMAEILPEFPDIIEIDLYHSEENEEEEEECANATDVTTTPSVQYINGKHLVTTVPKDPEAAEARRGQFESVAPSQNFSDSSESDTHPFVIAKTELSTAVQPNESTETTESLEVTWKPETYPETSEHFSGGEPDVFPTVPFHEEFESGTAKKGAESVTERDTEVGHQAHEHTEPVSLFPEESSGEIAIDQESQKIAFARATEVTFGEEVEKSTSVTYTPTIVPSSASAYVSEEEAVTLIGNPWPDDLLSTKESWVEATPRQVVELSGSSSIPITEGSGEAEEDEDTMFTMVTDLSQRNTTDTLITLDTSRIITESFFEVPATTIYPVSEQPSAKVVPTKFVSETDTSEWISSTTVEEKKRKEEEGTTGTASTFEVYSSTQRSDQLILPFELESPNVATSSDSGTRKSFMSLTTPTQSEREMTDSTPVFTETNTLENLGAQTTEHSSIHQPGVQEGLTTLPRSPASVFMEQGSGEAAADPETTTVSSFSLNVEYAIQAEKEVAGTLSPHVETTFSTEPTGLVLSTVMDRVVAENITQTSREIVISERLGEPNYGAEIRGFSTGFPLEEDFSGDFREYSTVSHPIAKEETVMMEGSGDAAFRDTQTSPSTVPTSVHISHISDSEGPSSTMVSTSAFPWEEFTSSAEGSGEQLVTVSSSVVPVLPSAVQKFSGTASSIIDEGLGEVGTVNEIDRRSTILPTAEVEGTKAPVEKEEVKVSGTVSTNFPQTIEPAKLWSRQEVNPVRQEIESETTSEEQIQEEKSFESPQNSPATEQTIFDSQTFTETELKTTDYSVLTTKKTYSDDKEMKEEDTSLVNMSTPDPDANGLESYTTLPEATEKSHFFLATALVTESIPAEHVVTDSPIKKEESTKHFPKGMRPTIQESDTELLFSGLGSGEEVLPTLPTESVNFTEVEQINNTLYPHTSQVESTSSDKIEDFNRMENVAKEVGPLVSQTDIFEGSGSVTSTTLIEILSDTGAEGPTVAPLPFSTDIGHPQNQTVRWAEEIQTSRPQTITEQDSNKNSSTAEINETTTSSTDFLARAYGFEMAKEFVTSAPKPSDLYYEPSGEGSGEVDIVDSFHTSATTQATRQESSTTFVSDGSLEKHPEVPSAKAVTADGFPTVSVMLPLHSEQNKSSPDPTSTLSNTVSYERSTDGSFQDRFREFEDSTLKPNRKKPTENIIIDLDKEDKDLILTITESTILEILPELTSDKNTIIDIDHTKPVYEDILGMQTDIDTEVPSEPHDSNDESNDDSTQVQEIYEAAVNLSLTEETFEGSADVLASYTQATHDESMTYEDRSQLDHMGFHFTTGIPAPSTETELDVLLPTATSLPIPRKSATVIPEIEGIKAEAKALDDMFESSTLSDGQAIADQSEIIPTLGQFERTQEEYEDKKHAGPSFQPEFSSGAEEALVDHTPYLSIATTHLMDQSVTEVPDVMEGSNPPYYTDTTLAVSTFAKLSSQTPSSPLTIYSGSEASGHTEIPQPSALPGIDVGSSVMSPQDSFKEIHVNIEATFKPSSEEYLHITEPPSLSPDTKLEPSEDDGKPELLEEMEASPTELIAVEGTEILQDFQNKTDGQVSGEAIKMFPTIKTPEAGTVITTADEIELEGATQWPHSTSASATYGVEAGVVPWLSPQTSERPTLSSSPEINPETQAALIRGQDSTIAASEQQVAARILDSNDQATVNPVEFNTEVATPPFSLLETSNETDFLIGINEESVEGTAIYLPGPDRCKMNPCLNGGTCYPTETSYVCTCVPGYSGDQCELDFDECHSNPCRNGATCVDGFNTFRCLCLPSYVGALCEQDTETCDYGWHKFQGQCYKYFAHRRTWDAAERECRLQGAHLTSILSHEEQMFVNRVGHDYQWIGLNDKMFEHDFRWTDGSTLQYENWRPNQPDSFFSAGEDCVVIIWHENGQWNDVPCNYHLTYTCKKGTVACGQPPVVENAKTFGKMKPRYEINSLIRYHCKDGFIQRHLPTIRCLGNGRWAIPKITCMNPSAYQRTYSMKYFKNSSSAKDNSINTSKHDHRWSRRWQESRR
UniProt P16070, residues 21-742: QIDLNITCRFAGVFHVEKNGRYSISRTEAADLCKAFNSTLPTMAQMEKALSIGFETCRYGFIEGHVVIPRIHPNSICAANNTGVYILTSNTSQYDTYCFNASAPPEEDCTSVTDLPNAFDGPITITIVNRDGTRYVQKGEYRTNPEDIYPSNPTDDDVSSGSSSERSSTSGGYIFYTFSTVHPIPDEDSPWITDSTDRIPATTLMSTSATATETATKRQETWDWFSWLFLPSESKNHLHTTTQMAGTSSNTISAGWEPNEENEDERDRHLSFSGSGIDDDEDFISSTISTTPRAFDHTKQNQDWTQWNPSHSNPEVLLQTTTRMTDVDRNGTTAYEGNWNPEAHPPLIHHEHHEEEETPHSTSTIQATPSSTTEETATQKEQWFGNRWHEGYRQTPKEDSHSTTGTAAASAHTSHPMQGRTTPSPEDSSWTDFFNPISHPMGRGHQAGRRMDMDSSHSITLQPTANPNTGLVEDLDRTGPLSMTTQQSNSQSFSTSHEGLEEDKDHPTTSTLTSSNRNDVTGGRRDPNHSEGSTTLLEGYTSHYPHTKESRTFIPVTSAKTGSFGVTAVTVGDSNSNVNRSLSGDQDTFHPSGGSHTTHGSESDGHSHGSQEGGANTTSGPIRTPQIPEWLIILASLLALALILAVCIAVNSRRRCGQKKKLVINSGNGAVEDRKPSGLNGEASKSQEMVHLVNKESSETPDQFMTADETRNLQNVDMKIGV

Target: recombinant CCL2 (human) (UniProt P13500)
Test: co-IP; MDA-MB-231 exosomes (500 ug/ml) sonicated in binding buffer (50 mM Hepes, 150 mM NaCl, 1% NP-40, 0.5% Triton X-100, pH 7.5), incubated with recombinant CCL2 (10 ug/ml) 1 h 30 min at 37 C; precipitated with anti-CCL2 antibody on Protein A/G agarose overnight at 4 C; detected by western blotting; only the target purified

| Molecule | binding |
| --- | --- |
| versican (from UniProt P13611 21-3396) | binds |
| CD44 (from UniProt P16070 21-742) | binds |
| B1 | binds |
